Assay results taken from PubChem BioAssay AID743266 (National Center for Advancing Translational Sciences (NCATS), 2014).
Hit rate of the full screen: of about 410,000 compounds, about 310 (0.076%) were called active. Inconclusive means that the source gave no clear call. Such entries were picked first, then a sample of the others. Calls come from the whole dose curve; as a rule, active = well fitted activation curve with a large enough effect; inconclusive = small, poorly fitted or top-dose-only effect, or another doubt; inactive = no such curve, though single readings can be large or run the other way. Where the call is inconclusive, the potency comes from a doubtful curve fit.

Protein sequences, listed by entry. Tags and fused reporters are not part of them.
UniProt Q03431, whole entry, looked up: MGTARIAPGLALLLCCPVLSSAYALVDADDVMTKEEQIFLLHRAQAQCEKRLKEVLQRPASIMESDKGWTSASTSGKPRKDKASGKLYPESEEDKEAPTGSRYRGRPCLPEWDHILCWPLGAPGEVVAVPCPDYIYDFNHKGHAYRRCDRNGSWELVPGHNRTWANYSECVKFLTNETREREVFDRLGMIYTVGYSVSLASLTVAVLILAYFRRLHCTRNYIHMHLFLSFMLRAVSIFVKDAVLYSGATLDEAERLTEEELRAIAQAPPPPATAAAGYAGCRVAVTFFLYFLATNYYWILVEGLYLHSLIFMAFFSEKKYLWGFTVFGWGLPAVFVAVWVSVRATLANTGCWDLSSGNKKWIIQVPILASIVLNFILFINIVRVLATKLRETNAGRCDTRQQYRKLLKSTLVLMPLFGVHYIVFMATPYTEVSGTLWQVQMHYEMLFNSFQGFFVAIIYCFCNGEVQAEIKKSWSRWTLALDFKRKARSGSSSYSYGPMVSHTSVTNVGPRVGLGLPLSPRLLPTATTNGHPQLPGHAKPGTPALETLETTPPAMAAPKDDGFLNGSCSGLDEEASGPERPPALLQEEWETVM

molecular target: Parathyroid hormone/parathyroid hormone-related peptide receptor (Homo sapiens) (UniProt Q03431); assay: qHTS for PTHR1 Agonists: Primary Screen; details: HEK293 GP2 PTHR1 cells, GloSensor cAMP luminescence, 1 h; activation: at 115 µM (top of the series) unless noted; series mostly up to 115 µM; note: nearly all actives have a fitted effect of over 55% in size
In short: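 HEK-293-derived GP2 cells expressing PTHR1 and a GloSensor cAMP reporter, 3,000/well, plated overnight, given luciferin plus IBMX (each 0.5 mM as added) for 1 h at 37 °C, then compound for 1 h at 37 °C. Luminescence was read after 15 min at room temperature.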
Potency is the fitted concentration of half-maximal effect.

SMILES	Potency	activation	outcome
CCOC(=O)c1c(O)c2ccccc2n(CC)c1=O	inconclusive: 15.8 µM [activator, partial curve, poor fit]		
CC[C@]12c3[nH]c4ccc(Cl)cc4c3CCN1C(=O)[C@@H](CC(=O)NCCC1=CCCCC1)C[C@@H]2C(=O)N1CCN(C(=O)C2CC2)CC1	inconclusive: 141 µM [activator, single point]		
CCOC(=O)c1nn(-c2ccc(C)cc2)c(=O)c2c(N)scc12	inconclusive: 56.2 µM [activator, single point]		
COC(=O)c1cc(NCc2c(F)cccc2Cl)ccc1N1CCOCC1	active: 2.51 µM		
COCCNC(=O)c1ccc(NC(=O)C2(c3ccccc3)CCCC2)cc1		inconclusive: 55.7% [activator]	
CCNS(=O)(=O)c1ccc(CCC(=O)NCc2ccccn2)cc1	inconclusive: 31.6 µM [activator, single point]		
CC(C)(C)NC(=O)C(c1cccc2ccccc12)n1c(=O)c(-c2ccco2)nc2ccccc21 (configuration not stated)		inactive: -23.1%	
CCn1c2ccccc2c2cc(/C=N/n3cnnc3)ccc21		inactive: -24.2% [at 57.5 µM]	
CCc1cc(C(=O)Nc2cc(Cl)ccc2N2CCN(C)CC2)sc1C	inconclusive: 126 µM [activator, single point]		
CC[C@@H](C)[C@H](NC(=O)OC(C)(C)C)c1nnc(S(=O)(=O)Cc2cc(C)ccc2C)o1		inactive: -68.3% [at 57.5 µM]	
CCCN(CC#CC(O)(c1ccccc1)c1cccnc1)CCC (configuration not stated)	inconclusive: 25.1 µM [activator, partial curve, poor fit]		
COC(=O)c1cc(O)cc(OC)c1C(=O)c1c(O)cc(C)cc1O		inactive: -48.6%	
O=c1ncn(-c2cccc([N+](=O)[O-])c2)c2ccccc12	inconclusive: 126 µM [activator, single point]		
C=CCn1nc([N+](=O)[O-])nc1Sc1cccc2cccnc12			inactive
Cc1c(NC(=S)/C=C2\N(C)c3ccccc3C2(C)C)c(=O)n(-c2ccccc2)n1C	inconclusive: 1.26 µM [activator, full curve, poor fit]		
CCOC(=O)C1CCN(c2c(NCc3ccc(C(=O)NC(C)CC)cc3)c(=O)c2=O)CC1 (configuration not stated)	inconclusive: 15.8 µM [activator, partial curve]		
COc1cccc(/C=N/n2c(=S)n(C)c3cc(C)c(C)cc32)c1OC	inconclusive: 31.6 µM [activator, single point]		
O=c1cnnc(SCc2ccc([N+](=O)[O-])cc2)[nH]1	inconclusive: 39.8 µM [activator, partial curve, poor fit]		
CC(C(=O)Nc1ccccc1)C(=O)Nc1ccccc1	inconclusive: 17.8 µM [activator, partial curve]		
COc1ccc(C2C(C(C)=O)=C(O)C(=O)N2c2ccc(F)cc2)cc1 (configuration not stated)		inconclusive: 68% [activator]	
COc1ccccc1N1CCN(CCCOc2ccc(F)cc2)CC1		inactive: 8.44% [at 57.5 µM]	
CCOC(=O)C1=C(C)NC2=C(C1c1ccc([N+](=O)[O-])cc1)S(=O)(=O)c1ccccc12 (configuration not stated)		inconclusive: -36.8% [activator] [at 57.5 µM]	
Cc1ccc(CNC(=O)C23CN(Cc4ccccc4)CC2C(c2ccc([N+](=O)[O-])cc2)=NO3)o1 (configuration not stated)	inconclusive: 14.1 µM [activator, full curve, poor fit]		

SMILES	Potency	activation	outcome
O=c1c2ccccc2c(C=Nc2ccc(S(=O)(=O)N3CCCCC3)cc2)c(O)n1-c1ccc(Cl)cn1		inconclusive: 34.9% [activator]	
CC(=O)n1nc(-c2cccnc2)nc1N	inconclusive: 39.8 µM [activator, single point]		
CCNC(=O)c1cc2c(c(-c3cccc(-c4cccc(C(=O)N(C)C)c4)c3)n1)[C@H](CCO)N(S(=O)C(C)(C)C)C2 (some centres not stated)		inconclusive: 53% [activator]	
COc1ccc(C(=O)N[C@H]2COC(C)(C)O[C@H]2c2ccccc2)cc1	inconclusive: 50.1 µM [activator, single point]		
O=C(NC1CCN(Cc2ccccc2)CC1)c1cc(S(=O)(=O)N2CCOCC2)ccc1Cl		inactive: -8.98%	
Cn1cccc1CC(=O)N/N=C\c1ccccc1		inconclusive: 54.9% [activator]	
Cc1ccc(CN2CCC(CNC(=O)c3cnn(-c4ccccc4Cl)c3C3CCN(C(=O)OC(C)(C)C)CC3)CC2)cc1	inconclusive: 50.1 µM [activator, partial curve, poor fit]		
Cc1ccc(CC(=O)Nc2ccc(S(=O)(=O)Nc3nccc(C)n3)cc2)cc1		inactive: -16.6%	
Cc1ccc(NS(=O)(=O)c2cc([N+](=O)[O-])ccc2NNC(=S)Nc2cc(C)ccc2C)c(C)c1		inactive: -22.2%	
CC1(C2CC2)NC(=O)N(CC(=O)Nc2ccccc2-c2ccccc2)C1=O (configuration not stated)	inconclusive: 112 µM [activator, single point]		
O=C(Nc1cc(=O)[nH]c(=O)[nH]1)c1cccc(Br)c1	inconclusive: 44.7 µM [activator, single point]		
CC(=O)N1CCc2cc(Br)cc(S(=O)(=O)CCC(=O)N3CCN(c4ccc(F)cc4)CC3)c21	inconclusive: 6.31 µM [activator, full curve, poor fit]		
CSc1nc2sc3c(c2c(=S)[nH]1)CC(C)(C)OC3		inactive: -25.2%	
Cc1ccc(-c2nc(CCNC(=O)c3ccc(C)c(C)c3)cs2)cc1		inconclusive: -89.8% [activator]	
CCOc1ccccc1NC(=O)CSc1nnc2[nH]c(=O)cc(C)n12	inconclusive: 126 µM [activator, single point]		
O=C(O)c1ccccc1-c1ccc(/C=C/c2cc(C(F)(F)F)[nH]c(=O)n2)o1			inactive
CCCCn1cc(S(=O)(=O)c2ccc(C)cc2)c(=O)c2cc(F)c(N3CCCCC3)cc21	inconclusive: 50.1 µM [activator, partial curve, poor fit]		
CC(C)c1ccc(/C=C2\SC(=S)N(CCC(=O)NCCCn3ccnc3)C2=O)cc1		inconclusive: -84.7% [activator]	
Cc1cccc(NC(=O)c2ccc3c(c2)C(=O)N(Cc2cccnc2)C3=O)c1C		inconclusive: -67.5% [activator]	
Cc1cc2nc(-c3cccc(NC(=O)c4cccc5ccccc45)c3)oc2cc1C	inconclusive: 44.7 µM [activator, partial curve, poor fit]		
COc1cc(CN2CCNC(=O)C2CC(=O)NCc2csc(C(C)C)n2)cc(OC)c1 (configuration not stated)	inconclusive: 126 µM [activator, single point]		
Cc1ccc2cccc(Oc3ncnc4scc(-c5ccccc5)c34)c2n1			inactive
OCCC1CN(Cc2cccn2-c2ncccn2)CCN1Cc1ccc(F)cc1 (configuration not stated)	inconclusive: 15.8 µM [activator, partial curve, poor fit]		

Some of these compounds in order of SMILES length, ascending.
SMILES	Potency	activation	outcome
CC(=O)n1nc(-c2cccnc2)nc1N	inconclusive: 39.8 µM [activator, single point]		
CC1(C2CC2)NC(=O)N(CC(=O)Nc2ccccc2-c2ccccc2)C1=O (configuration not stated)	inconclusive: 112 µM [activator, single point]		
CC(C)c1ccc(/C=C2\SC(=S)N(CCC(=O)NCCCn3ccnc3)C2=O)cc1		inconclusive: -84.7% [activator]	
CCCCn1cc(S(=O)(=O)c2ccc(C)cc2)c(=O)c2cc(F)c(N3CCCCC3)cc21	inconclusive: 50.1 µM [activator, partial curve, poor fit]		

Next part:

SMILES	Potency	activation	outcome
Cc1cc(OCc2nn[nH]n2)c2c(C)c(CC(=O)O)c(=O)oc2c1		inconclusive: 70.8% [activator] [at 57.5 µM]	
COc1cc(C)ccc1OCCOc1cc(C)ccc1Cl		inactive: -4.43%	
O=S(=O)(c1ccc(OC(F)(F)F)cc1)N1CCC(c2nnnn2-c2ccc(F)cc2)CC1	inconclusive: 2.24 µM [activator, full curve, poor fit]		
CCOC(=O)c1cc([N+](=O)[O-])cc([N+](=O)[O-])c1Sc1ncnc2nc[nH]c12		inactive: -37.7%	
CC1(C)CC(=O)C(N=Nc2ccc(S(=O)(=O)N3CCOCC3)cc2)=C(O)C1	inconclusive: 39.8 µM [activator, partial curve, poor fit]		
NC(=O)c1ccccc1N/C=C/C(=O)c1ccc(Cl)cc1	inconclusive: 126 µM [activator, single point]		
Cc1ccc(-n2cccn2)c(CN2CCCC(C(=O)c3ccc4c(c3)OCO4)C2)c1 (configuration not stated)			inactive
C/C(=N\NC(=O)c1ccc(=O)[nH]n1)c1cccnc1	inconclusive: 141 µM [activator, single point]		
CN(Cc1ccccc1)CC(O)COc1ccc(CNCc2cccnc2)cc1 (configuration not stated)		inconclusive: 69.3% [activator]	
COc1ccc(C2(OC)Oc3cc(OC)ccc3C(=O)C2(O)OC)cc1 (configuration not stated)		inactive: -71.6%	
CCOc1cc(/C=N/NC(=O)c2ccc(CSc3nncn3C)cc2)ccc1OCC(=O)N1CCOCC1	inconclusive: 100 µM [activator, single point]		
Cc1nn(-c2ccccc2)c2c1C(c1ccc(O)c(O)c1)N1C(=N2)C(Nc2ccccc2)=Nc2ccccc21 (configuration not stated)		inactive: -20.3%	
CCOC(=O)c1ccc(NC(=O)COc2ccc(S(=O)(=O)NC(C)(C)C)cc2)cc1	inconclusive: 44.7 µM [activator, single point]		
Cc1cc(C)cc(OCC(=O)Nc2ccc3c(c2)OCCO3)c1	inconclusive: 63.1 µM [activator, partial curve, poor fit]		
CCOC(=O)CNC(=O)N1CCN(S(=O)(=O)c2ccc3c(ccn3C)c2)CC1	inconclusive: 7.94 µM [activator, full curve, poor fit]		
Cc1ccccc1CNC(=O)Cn1c(=O)c2cccn2c2cccnc21			inactive
CCn1cc(C(=O)NCCN(CC(C)C)CC(C)C)c(=O)c2cc(S(=O)(=O)N3CCOCC3)ccc21			inactive
O=c1cc(CN2CCCc3ccccc32)nc2sccn12		inconclusive: -3.78% [activator]	
CCN(CC)CCCN(Cc1cc2cc(OC)ccc2[nH]c1=O)C(=O)Nc1ccccc1			inactive
O=C(NCC[C@@H]1CC[C@@H](NC(=O)c2cnccn2)[C@@H](CO)O1)c1ccc2c(c1)OCO2			inactive
O=C(c1cccc(S(=O)(=O)N2CCCC2)c1)c1nnc(-c2ccncc2)o1	inconclusive: 39.8 µM [activator, single point]		
